Record: PubChem BioAssay AID1259405 (NCATS, 2018)
Aim: 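Silenced genes that increase secreted GFP made by CHO cells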 (primary screen). Cells: Chinese hamster CHO-K1 ovary cells with stable secreted eGFP expression. Reagent: single siRNA against mouse genes, 0.8 pmol siRNA per well (2 µl of 400 nM stock). Timing: 3 days. Read-out: 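Per-well intracellular GFP measured by laser scanning cytometry, plus viability from ATP luminescence, each relative to plate median of non-targeting control wells, in %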. Direction: GFP, % of control: higher = more GFP per well, higher productivity. Call rule: 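a knock-down is called active if GFP reaches 120% or more of non-targeting control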.
This is an unselected part of about 50,000 reagents. In the full data, about 4,000 (8%) were called active. 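Mouse siRNA library applied to hamster cells; one well for each siRNA.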 Unmarked entries are inactive. The numbers tell different reagents against one gene apart. Not all columns of the deposit are shown.

GFP, % of control, by target gene and reagent
Map7: #1 106; #2 42.1
Mc4r: #1 55.9; #2 85.6; #3 78.6
Prodh2: #1 109; #2 38.3; #3 41.9
Mrpl30: #1 102; #2 87.4; #3 92.3
Tceal1: #1 90.7; #2 68.3; #3 79.1
Rwdd1: #1 63.3; #2 69.9; #3 70.3
Tcl1b5: #1 64.5; #2 88.8; #3 109
Fkbp1b: #1 122 (active); #2 75.8; #3 110
Or2y7: #1 54.2; #2 59.4; #3 62.2
Nlrp9b: #1 59.1; #2 68.7; #3 74.9
Gkn2: #1 32.1; #2 86.2; #3 115
Mal2: #1 77.9; #2 72.2; #3 48.4
Ccdc86: #1 57.1; #2 92.6; #3 57
Spi1: #1 97.6; #2 36.2; #3 94.7

Hits (from the list above):
GFP, % of control, by target gene and reagent
Fkbp1b: #1 122 (active)

The listing continues:
GFP, % of control, by target gene and reagent
Hdac9: #1 56.7; #2 59.7; #3 78.6
Arhgap22: #1 85.2; #2 68.7; #3 90.1
5930422O12Rik: #1 62.1; #2 66.3; #3 78.3
Acrv1: #1 96.3; #2 78; #3 80.4
Rab10: #1 95.8; #2 63.1; #3 70.7
Stk35: #1 60.7; #2 63.4; #3 94.9
Adamts6: #1 94.1; #2 69.9; #3 92.4
Mpzl3: #1 60; #2 85; #3 55.6
Mmp12: #1 53.4; #2 71.4
Sowahc: #1 89.2; #2 95; #3 81.8
Ubl4a: #1 81; #2 44.7; #3 65
Hoxd1: #1 93.9; #2 82.5; #3 63.5
Vwa1: #1 123 (active); #2 56.8; #3 63.7
Kirrel1: #1 108; #2 76.6; #3 75.4
Uap1: #1 85.8; #2 70.5; #3 81.5
